# Experimental data taken from the supplement of paper PMC7125110.
# ± gives the standard error. Many entries were measured with a wide error.
# B1: glmS ribozyme (parent)
# chain: AUAAAAGCGCCAGAACUACAGAAAUGUAGUUGACGAGGAGGAGGUUUAUCGAAUUUUCGGCGGAUGCCUCCAAA
# Variants of: B1
# Test: kcat; higher = faster cleavage; RNA array
# Conditions: with glucosamine-6-phosphate
# Summary of the method: (§1)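 Weighted Michaelis–Menten fits across concentrations supplied kcat and KM, based on kobs from one- or two-exponential decay fits to normalised per-tile medians. The data came from barcoded ribozyme variants transcribed in situ by E. coli RNA polymerase on sequenced MiSeq chips and tracked at 37 °C by a hybridised Cy3 probe. Glucosamine-6-phosphate (40 μM to 10 mM) in HEPES/KCl/Mg(OAc)2 buffer was flowed in.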
row,Variant,kcat [s⁻¹]
1,C16U U56G,0.0206 ± 0.015
2,U30C C50U C70G,0.00011 ± 6.2e-05
3,C11U G29A,0.000628 ± 0.00013
4,G9U U45A,< 1e-05
5,C11U G32A,0.000453 ± 3.3e-05
6,C16U G37A U54C,0.00248 ± 0.0013
7,C10U A36G,< 1e-05
8,A14G C70G,0.000878 ± 0.00049
9,A15G G51U C71A,1.45e-05 ± 1.7e-06
10,G32C A33G,< 1e-05
11,C34G A64U C67U,< 1e-05
12,G29C A53G,0.00235 ± 0.00053
13,A15G G41A,0.00216 ± 0.0012
14,G13U G40A,9.73e-05 ± 5.4e-05
15,G29C G38C,1.07e-05 ± 6.6e-06
16,A14C C71U,0.0115 ± 0.0076
17,A14G C67A,0.00934 ± 0.007
18,C34A A48G U54C G66U C68G,2.22e-05 ± 2.1e-05
19,G7U G38C,< 1e-05
20,A6C C50A U55G,< 1e-05
21,A33G G35U,< 1e-05
22,G9U A14G,1.09e-05 ± 5.1e-06

row,Variant,kcat [s⁻¹]
1,A15C G66A,0.00737 ± 0.0042
2,A12U A48C,0.000932 ± 0.00088
3,G7U G60A,< 1e-05
4,U30A A39G,0.0194 ± 0.019
5,U30C U31C,0.00371 ± 0.0019
6,A12C G13A,0.000473 ± 0.00016
7,A14G G32A G38U,< 1e-05
8,A6U G51A,1.66e-05 ± 1.2e-05
9,A12C G62U C70G,2.02e-05 ± 4.5e-06
10,G29U A53G C67G,0.000147 ± 2.6e-05
11,G29U C71A,0.00136 ± 0.00094
12,G29U C71U,0.00336 ± 0.0018
13,C16U,0.0542 ± 0.005
14,A14G C16G,0.0069 ± 0.0022
15,A12C G59A,< 1e-05
16,C11U U56A,0.00124 ± 0.00023
17,A12C G29U,0.0106 ± 0.0057
18,A12C C50A,3.92e-05 ± 2.4e-05
19,A12U G29C,0.0301 ± 0.03
20,A15G A53G,0.0414 ± 0.025
21,U31C G59U,< 1e-05
22,G7U U69A,3.25e-05 ± 3.2e-05

row,Variant,kcat [s⁻¹]
1,G29U U55G,0.00411 ± 0.0023
2,G38U C70G,2.81e-05 ± 2.5e-05
3,A12U A64G,0.0329 ± 0.027
4,G38A G51A,< 1e-05
5,G29C U56A,0.0026 ± 0.0017
6,A14C G26A,0.00194 ± 0.00022
7,A39G C71A,0.00428 ± 0.0022
8,C11U C61U,< 1e-05
9,U31G U45A,0.0285 ± 0.0073
10,U31G U45G,0.00239 ± 0.00077
11,C11A A12U U45G U55A C70U,0.00104 ± 0.00013
12,G37U G51A,3.2e-05 ± 1.8e-05
13,C16A C71A,0.000128 ± 2e-05
14,A12U C67A,0.00241 ± 0.0012
15,G38C C50A,1.31e-05 ± 7.7e-06
16,U31G G66A,0.00309 ± 0.0023
17,C16A U46G A48G C50U C67A,1.04e-05 ± 4.5e-06
18,A6U A53U,0.000209 ± 3.5e-05
19,A12C A15G,0.016 ± 0.0031
20,A14C U57A U69A,3.51e-05 ± 1.3e-05

# Variants of: B1
# Test: KM; higher = weaker cofactor use; RNA array
# Conditions: with glucosamine-6-phosphate
# Summary of the method: as §1
row,Variant,KM [µM]
1,C16U U56G,3010 ± 2800
2,C11U G29A,4190 ± 1400
3,C11U G32A,1520 ± 290
4,C16U G37A U54C,5570 ± 4500
5,C10U A36G,24.6 ± 15
6,A14G C70G,448 ± 340
7,A15G G51U C71A,510 ± 210
8,G29C A53G,2630 ± 900
9,A15G G41A,958 ± 680
10,A14C C71U,5340 ± 4100
11,A14G C67A,805 ± 790
12,A15C G66A,5060 ± 3700
13,U30C U31C,3460 ± 3000
14,A12C G13A,3410 ± 1800
15,G29U A53G C67G,149 ± 90
16,G29U C71U,1570 ± 1100
17,C16U,2230 ± 230

row,Variant,KM [µM]
1,A14G C16G,536 ± 270
2,C11U U56A,1910 ± 580
3,A12C G29U,2270 ± 1400
4,A15G A53G,2140 ± 1600
5,G29U U55G,6600 ± 5400
6,G29C U56A,9740 ± 8800
7,A14C G26A,1030 ± 190
8,A39G C71A,724 ± 580
9,C11U C61U,122 ± 8.2
10,U31G U45A,2180 ± 720
11,U31G U45G,2930 ± 1500
12,C11A A12U U45G U55A C70U,32400 ± 5100
13,C16A C71A,450 ± 260
14,A12U C67A,97.1 ± 83
15,A6U A53U,2570 ± 1100
16,A12C A15G,2400 ± 600

# Variants of: B1
# Test: self-cleavage kobs at 160 uM GlcN6P; higher = faster cleavage; RNA array
# Conditions: with glucosamine-6-phosphate
# Summary of the method: as §1
row,Variant,self-cleavage kobs at 160 uM GlcN6P [s⁻¹]
1,C11U G29A,2.5e-05 ± 1.3e-05
2,A12C G13A,4.27e-05 ± 2.8e-05
3,G29U C71A,0.000152 ± 8.4e-05

# Variants of: B1
# Test: self-cleavage kobs at 40 uM GlcN6P; higher = faster cleavage; RNA array
# Conditions: with glucosamine-6-phosphate
# Summary of the method: as §1
row,Variant,self-cleavage kobs at 40 uM GlcN6P [s⁻¹]
1,C16U G37A U54C,1.69e-05 ± 1.2e-05
2,A12U A48C,2.91e-05 ± 1.7e-05
3,U31G U45G,2.57e-05 ± 1.5e-05

# Variants of: B1
# Test: self-cleavage kobs at 2500 uM GlcN6P; higher = faster cleavage; RNA array
# Conditions: with glucosamine-6-phosphate
# Summary of the method: as §1
row,Variant,self-cleavage kobs at 2500 uM GlcN6P [s⁻¹]
1,U30A A39G,0.00385 ± 0.0029
2,G38U C70G,0.000507 ± 0.00034
3,A14C U57A U69A,2.5e-05 ± 2.1e-05

# Variants of: B1
# Test: self-cleavage kobs at 640 uM GlcN6P; higher = faster cleavage; RNA array
# Conditions: with glucosamine-6-phosphate
# Summary of the method: as §1
row,Variant,self-cleavage kobs at 640 uM GlcN6P [s⁻¹]
1,A12C G62U C70G,2.53e-05 ± 2.5e-05
2,A6U A53U,2.37e-05 ± 1.8e-05

# Variants of: B1
# Test: self-cleavage kobs at 10000 uM GlcN6P; higher = faster cleavage; RNA array
# Conditions: with glucosamine-6-phosphate
# Summary of the method: as §1
row,Variant,self-cleavage kobs at 10000 uM GlcN6P [s⁻¹]
1,A12C C50A,1.78e-05 ± 1.2e-05
2,G7U U69A,0.000401 ± 0.00039
3,G38U C70G,2.27e-05 ± 1.2e-05
